Laboratory results as given in paper PMC6158915.

Target: Pde6δ-Strep-HA (retinal rod rhodopsin-sensitive cGMP 3',5'-cyclic phosphodiesterase subunit delta) (human) (UniProt O43924)
Assay: affinity purification with mass spectrometry; Pde6δ-Strep-HA stably expressed in HEK293 pulled down from protein extracts on Strep-Tactin Sepharose beads; label-free quantitative MS (LTQ Orbitrap XL); control HEK293 cells without bait; vehicle (DMSO) treated cells, also REM treated cells; co-precipitation threshold of 2 (Pde6δ vehicle/control); three biological replicates

B1: RPGR (protein, UniProt Q92834 1-1020)
chain: MREPEELMPDSGAVFTFGKSKFAENNPGKFWFKNDVPVHLSCGDEHSAVVTGNNKLYMFGSNNWGQLGLGSKSAISKPTCVKALKPEKVKLAACGRNHTLVSTEGGNVYATGGNNEGQLGLGDTEERNTFHVISFFTSEHKIKQLSAGSNTSAALTEDGRLFMWGDNSEGQIGLKNVSNVCVPQQVTIGKPVSWISCGYYHSAFVTTDGELYVFGEPENGKLGLPNQLLGNHRTPQLVSEIPEKVIQVACGGEHTVVLTENAVYTFGLGQFGQLGLGTFLFETSEPKVIENIRDQTISYISCGENHTALITDIGLMYTFGDGRHGKLGLGLENFTNHFIPTLCSNFLRFIVKLVACGGCHMVVFAAPHRGVAKEIEFDEINDTCLSVATFLPYSSLTSGNVLQRTLSARMRRRERERSPDSFSMRRTLPPIEGTLGLSACFLPNSVFPRCSERNLQESVLSEQDLMQPEEPDYLLDEMTKEAEIDNSSTVESLGETTDILNMTHIMSLNSNEKSLKLSPVQKQKKQQTIGELTQDTALTENDDSDEYEEMSEMKEGKACKQHVSQGIFMTQPATTIEAFSDEEVGNDTGQVGPQADTDGEGLQKEVYRHENNNGVDQLDAKEIEKESDGGHSQKESEAEEIDSEKETKLAEIAGMKDLREREKSTKKMSPFFGNLPDRGMNTESEENKDFVKKRESCKQDVIFDSERESVEKPDSYMEGASESQQGIADGFQQPEAIEFSSGEKEDDEVETDQNIRYGRKLIEQGNEKETKPIISKSMAKYDFKCDRLSEIPEEKEGAEDSKGNGIEEQEVEANEENVKVHGGRKEKTEILSDDLTDKAEDHEFSKTEELKLEDVDEEINAENVESKKKTVGDDESVPTGYHSKTEGAERTNDDSSAETIEKKEKANLEERAICEYNENPKGYMLDDADSSSLEILENSETTPSKDMKKTKKIFLFKRVPSINQKIVKNNNEPLPEIKSIGDQIILKSDNKDADQNHMSQNHQNIPPTNTERRSKSCTIL
For B1, the binding was “binds”.

B2: Lamin B2 (protein, UniProt Q03252 1-620)
chain: MSPPSPGRRREQRRPRAAATMATPLPGRAGGPATPLSPTRLSRLQEKEELRELNDRLAHYIDRVRALELENDRLLLKISEKEEVTTREVSGIKALYESELADARRVLDETARERARLQIEIGKLRAELDEVNKSAKKREGELTVAQGRVKDLESLFHRSEVELAAALSDKRGLESDVAELRAQLAKAEDGHAVAKKQLEKETLMRVDLENRCQSLQEELDFRKSVFEEEVRETRRRHERRLVEVDSSRQQEYDFKMAQALEELRSQHDEQVRLYKLELEQTYQAKLDSAKLSSDQNDKAASAAREELKEARMRLESLSYQLSGLQKQASAAEDRIRELEEAMAGERDKFRKMLDAKEQEMTEMRDVMQQQLAEYQELLDVKLALDMEINAYRKLLEGEEERLKLSPSPSSRVTVSRATSSSSGSLSATGRLGRSKRKRLEVEEPLGSGPSVLGTGTGGSGGFHLAQQASASGSVSIEEIDLEGKFVQLKNNSDKDQSLGNWRIKRQVLEGEEIAYKFTPKYILRAGQMVTVWAAGAGVAHSPPSTLVWKGQSSWGTGESFRTVLVNADGEEVAMRTVKKSSVMRENENGEEEEEEAEFGEEDLFHQQGDPRTTSRGCYVM
For B2, the binding was “binds”.

B3: Fbxo10 (protein, UniProt Q9UK96 1-956)
chain: MEAGGLPLELWRMILAYLHLPDLGRCSLVCRAWYELILSLDSTRWRQLCLGCTECRHPNWPNQPDVEPESWREAFKQHYLASKTWTKNALDLESSICFSLFRRRRERRTLSVGPGREFDSLGSALAMASLYDRIVLFPGVYEEQGEIILKVPVEIVGQGKLGEVALLASIDQHCSTTRLCNLVFTPAWFSPIMYKTTSGHVQFDNCNFENGHIQVHGPGTCQVKFCTFKNTHIFLHNVPLCVLENCEFVGSENNSVTVEGHPSADKNWAYKYLLGLIKSSPTFLPTEDSDFLMSLDLESRDQAWSPKTCDIVIEGSQSPTSPASSSPKPGSKAGSQEAEVGSDGERVAQTPDSSDGGLSPSGEDEDEDQLMYRLSYQVQGPRPVLGGSFLGPPLPGASIQLPSCLVLNSLQQELQKDKEAMALANSVQGCLIRKCLFRDGKGGVFVCSHGRAKMEGNIFRNLTYAVRCIHNSKIIMLRNDIYRCRASGIFLRLEGGGLIAGNNIYHNAEAGVDIRKKSNPLILCNQIHHGLRSGIVVLGNGKGIIRNNQIFSNKEAGIYILYHGNPVVSGNHIFKGRAAGIAVNENGKGLITENVIRENQWGGVDIRRGGIPVLRSNLICFGYSDGVVVGDEGKGLIEGNTIYANKGCGVWMMSSSLPHVTSNHVSYNGLYGVAVFSQKDGSSELPRGHRAQENFSEDGDAILWETELEKEDDPLRRPITIALVESNSINHNGASGLYVQSSEALHVITNVIHANGDRGITVAQSSQPTRVANNSISCNRQSGVKVEAQCKVELRGNGIYDNRGHGIITKGDSTIVIENDIIGNRGSGLQLLPRSDTKVIKNRIHSFRAYGIAVRGRAKALVQENIIFQGKTSKTIFQQISNNRECIMQNNKFLVFKKKSDTWRLVNPPARPHLENSLRRPSAAHNGQKVTAMATRITARVEGGYHSNRSVFCTIL
For B3, the binding was “binds”.

These are yes or no findings as the source states them, for the method shown. Binding seen in cells or lysates may run through a third protein. Here binding means that the protein was enriched with, or labelled near, the bait; the list need not be complete.
